These are yes or no findings as the source states them, for the method shown. Binding seen in cells or lysates may run through a third protein. Some results given as binding are weak or reduced against the parent protein; the word gives no strength.
Target: HBH-∆F508-CFTR-3HA (UniProt P13569)
Experiment: pull-down; NeutrAvidin agarose pull-down of HBH-∆F508-CFTR-3HA from lysates of 293MSR WT and RNF5/185 DKO cells transfected with FLAG-His-UBE3C; 2 mM NaB for 1 day, 10 µM MG-132 for 1 h; mild lysis buffer (150 mM NaCl, 20 mM Tris, 0.1% NP-40, pH 7.4), 2 h at 4 °C; Western blotting

Chains of the proteins cited; added tags and fusions are not shown. Lines headed by an entry give the natural chain unless they say otherwise; changes in a name come on top. A line that says so, or that is headed by a name, gives the form on record, which may keep a tag or linker.
HBH-∆F508-CFTR-3HA (P13569, form named): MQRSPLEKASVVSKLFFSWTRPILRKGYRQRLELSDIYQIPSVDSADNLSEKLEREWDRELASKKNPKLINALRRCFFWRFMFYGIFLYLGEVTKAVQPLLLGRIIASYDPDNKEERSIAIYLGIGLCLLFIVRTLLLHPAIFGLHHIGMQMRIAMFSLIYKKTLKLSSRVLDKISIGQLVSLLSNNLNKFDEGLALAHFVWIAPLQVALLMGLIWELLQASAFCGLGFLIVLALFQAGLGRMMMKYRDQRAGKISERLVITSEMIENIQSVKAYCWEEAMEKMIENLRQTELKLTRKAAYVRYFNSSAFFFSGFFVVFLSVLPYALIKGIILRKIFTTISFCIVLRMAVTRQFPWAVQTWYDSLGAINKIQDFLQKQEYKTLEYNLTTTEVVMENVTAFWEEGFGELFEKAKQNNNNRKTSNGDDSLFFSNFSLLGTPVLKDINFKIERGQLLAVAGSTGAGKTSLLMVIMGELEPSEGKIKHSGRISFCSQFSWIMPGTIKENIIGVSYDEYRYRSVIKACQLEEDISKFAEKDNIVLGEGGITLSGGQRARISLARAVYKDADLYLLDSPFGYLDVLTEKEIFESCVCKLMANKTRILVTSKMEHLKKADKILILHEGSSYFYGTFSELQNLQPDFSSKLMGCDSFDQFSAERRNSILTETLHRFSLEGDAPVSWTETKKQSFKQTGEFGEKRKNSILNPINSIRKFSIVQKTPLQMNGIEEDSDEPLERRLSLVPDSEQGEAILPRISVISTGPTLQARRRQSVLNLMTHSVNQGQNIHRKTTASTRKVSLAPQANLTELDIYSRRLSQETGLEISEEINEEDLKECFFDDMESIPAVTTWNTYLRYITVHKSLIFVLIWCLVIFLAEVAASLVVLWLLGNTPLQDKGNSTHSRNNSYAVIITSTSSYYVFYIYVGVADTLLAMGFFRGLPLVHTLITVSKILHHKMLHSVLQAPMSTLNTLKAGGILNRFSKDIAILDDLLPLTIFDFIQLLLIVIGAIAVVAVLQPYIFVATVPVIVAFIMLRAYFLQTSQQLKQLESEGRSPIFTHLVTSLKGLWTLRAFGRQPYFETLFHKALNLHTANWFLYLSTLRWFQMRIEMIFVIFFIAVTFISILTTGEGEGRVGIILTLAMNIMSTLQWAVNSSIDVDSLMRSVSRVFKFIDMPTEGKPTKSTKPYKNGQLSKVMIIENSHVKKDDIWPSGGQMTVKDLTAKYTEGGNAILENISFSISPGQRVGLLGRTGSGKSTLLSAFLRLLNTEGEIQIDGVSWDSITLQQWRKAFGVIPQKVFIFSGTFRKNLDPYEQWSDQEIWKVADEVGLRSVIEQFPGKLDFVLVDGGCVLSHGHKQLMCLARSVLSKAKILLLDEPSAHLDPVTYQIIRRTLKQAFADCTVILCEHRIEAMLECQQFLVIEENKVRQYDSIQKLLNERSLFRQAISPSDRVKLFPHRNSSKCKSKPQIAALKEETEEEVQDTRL
UniProt Q15386: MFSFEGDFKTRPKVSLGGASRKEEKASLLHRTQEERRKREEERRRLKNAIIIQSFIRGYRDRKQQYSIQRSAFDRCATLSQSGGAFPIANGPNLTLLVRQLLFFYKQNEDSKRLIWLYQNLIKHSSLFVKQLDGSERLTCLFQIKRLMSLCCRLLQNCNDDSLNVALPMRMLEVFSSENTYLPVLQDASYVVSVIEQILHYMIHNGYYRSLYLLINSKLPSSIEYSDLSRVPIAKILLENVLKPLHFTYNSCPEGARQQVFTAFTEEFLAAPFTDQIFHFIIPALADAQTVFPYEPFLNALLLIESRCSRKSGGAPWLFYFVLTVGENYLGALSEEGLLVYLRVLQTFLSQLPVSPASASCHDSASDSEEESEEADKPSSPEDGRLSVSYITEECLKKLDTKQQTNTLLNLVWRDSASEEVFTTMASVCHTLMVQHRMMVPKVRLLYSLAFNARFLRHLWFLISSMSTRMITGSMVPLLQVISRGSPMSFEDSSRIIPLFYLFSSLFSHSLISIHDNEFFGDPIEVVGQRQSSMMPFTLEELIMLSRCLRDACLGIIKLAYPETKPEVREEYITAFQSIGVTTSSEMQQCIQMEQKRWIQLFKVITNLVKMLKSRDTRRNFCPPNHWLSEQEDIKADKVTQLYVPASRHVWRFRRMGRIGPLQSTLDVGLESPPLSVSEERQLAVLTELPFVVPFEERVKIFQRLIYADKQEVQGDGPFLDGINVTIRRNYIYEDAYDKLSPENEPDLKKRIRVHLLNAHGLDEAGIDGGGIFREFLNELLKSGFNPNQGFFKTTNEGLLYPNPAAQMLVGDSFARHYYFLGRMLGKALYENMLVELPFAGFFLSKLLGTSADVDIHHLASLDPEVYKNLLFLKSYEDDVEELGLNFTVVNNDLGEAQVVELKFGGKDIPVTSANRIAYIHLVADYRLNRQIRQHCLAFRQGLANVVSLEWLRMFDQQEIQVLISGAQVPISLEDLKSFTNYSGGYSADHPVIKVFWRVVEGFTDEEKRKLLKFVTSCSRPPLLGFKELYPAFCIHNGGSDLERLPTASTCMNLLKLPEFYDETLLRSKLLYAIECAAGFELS

| Substance | binding |
| --- | --- |
| FLAG-His-C1051A-UBE3C (from UniProt Q15386 1-1083) (enzyme) | binds |
| FLAG-His-UBE3C (from UniProt Q15386 1-1083) (enzyme) | binds |
